Results from the supplement of paper PMC4604168 (melanoma cell lines).
This is one part of the list. Repeats are few or missing, and single values can be far off.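 Cells were imaged in 1,536-well plates, and nuclei stained with an antibody against cleaved PARP were counted against all DNA-stained nuclei to give the apoptosis fraction. Screening doses were chosen to leave most cells alive, and resting and induced cleaved-PARP levels differ strongly between cell lines.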

Assays:
Assay in all cases: cleaved PARP positive nuclei fraction relative to DMSO control; melanoma cells; higher = more apoptosis
Details in all cases: library dose: low library concentration; 72 h
501Mel = system: 501Mel
A101D = system: A101D
A2058 = system: A2058
A375 = system: A375
C32 = system: C32
CBRC008 = system: CBRC008 (line from a melanoma biopsy)
CBRC014 = system: CBRC014 (line from a melanoma biopsy)
CBRC016 = system: CBRC016 (line from a melanoma biopsy)
CBRC017 = system: CBRC017 (line from a melanoma biopsy)

Row | SMILES | cleaved PARP positive nuclei fraction (501Mel) [%] | cleaved PARP positive nuclei fraction (A101D) [%] | cleaved PARP positive nuclei fraction (A2058) [%] | cleaved PARP positive nuclei fraction (A375) [%] | cleaved PARP positive nuclei fraction (C32) [%] | cleaved PARP positive nuclei fraction (CBRC008) [%] | cleaved PARP positive nuclei fraction (CBRC014) [%] | cleaved PARP positive nuclei fraction (CBRC016) [%] | cleaved PARP positive nuclei fraction (CBRC017) [%]
1 | CC[C@]1(O)C[C@H]2CN(CCc3c([nH]c4ccccc34)[C@@](C(=O)OC)(c3cc4c(cc3OC)N(C=O)[C@H]3[C@@](O)(C(=O)OC)[C@H](OC(C)=O)[C@]5(CC)C=CCN6CC[C@]43[C@@H]65)C2)C1 [vincristine] + NC(=O)c1ccc(N(C(N)=O)c2c(F)cccc2F)nc1-c1ccc(F)cc1F [VX702] (first compound 0.0001 µM, partner dose 0.4 µM) | 50.5 | 194 | 1310 | 135 | 743 | 238 | 112 | 743 | 122
2 | O=C(Nc1cc(C(F)(F)F)cc(C(F)(F)F)c1)c1cc(Cl)ccc1O + OCc1c[nH]c2ccccc12 [Indole-3-carbinol] (first compound 0.016 µM, partner dose 0.8 µM) | 109 | 67 | 227 | 334 | 89.2 | 134 | 78.4 | 92.3 | 110
3 | O=C(Nc1cc(C(F)(F)F)cc(C(F)(F)F)c1)c1cc(Cl)ccc1O + Cn1cnc2c(F)c(Nc3ccc(Br)cc3Cl)c(C(=O)NOCCO)cc21 [selumetinib] (first compound 0.016 µM, partner dose 0.015 µM) | 155 | 90.2 | 178 | 103 | 85.9 | 159 | 91.5 | 151 | 131
4 | Cc1cc(Nc2cc(N3CCN(C)CC3)nc(Sc3ccc(NC(=O)C4CC4)cc3)n2)n[nH]1 [Tozasertib] + C#Cc1cccc(Nc2ncnc3cc(OCCOC)c(OCCOC)cc23)c1 [erlotinib] (first compound 0.006 µM, partner dose 0.8 µM) | 93 | 394 | 110 | 119 | 87.5 | 356 | 107 | 103 | 95
5 | O=C(/C=C/c1cccnc1)NCCCCC1CCN(C(=O)c2ccccc2)CC1 + CNC(=O)c1cc(Oc2ccc(NC(=O)Nc3ccc(Cl)c(C(F)(F)F)c3)cc2)ccn1 [sorafenib] (first compound 0.01 µM, partner dose 0.4 µM) | 171 | 118 | 123 | 82.3 | 79.9 | 4140 | 91 | 1170 | 572
6 | Cc1cn(-c2cc(NC(=O)c3ccc(C)c(Nc4nccc(-c5cccnc5)n4)c3)cc(C(F)(F)F)c2)cn1 [nilotinib] + CCN(CC)CCNC(=O)c1c(C)[nH]c(/C=C2\C(=O)Nc3ccc(F)cc32)c1C [sunitinib] (first compound 0.2 µM, partner dose 0.4 µM) | 60.8 | 50.4 | 139 | 95.2 | 71.2 | 40.9 | 91.6 | 46.2 | 92.1
7 | Cc1cc(Nc2cc(N3CCN(C)CC3)nc(Sc3ccc(NC(=O)C4CC4)cc3)n2)n[nH]1 [Tozasertib] + O=C(O)[C@@H]1[O][Sb](=[O])([O][Sb]2(=[O])[O][C@H]([C@H](O)CO)[C@H](O)[C@H](C(=O)O)[O]2)[O][C@H]([C@H](O)CO)[C@@H]1O [stibogluconate] (first compound 0.006 µM, partner dose 2 µM) | 113 | 46.9 | 182 | 52 | 29.7 | 51.8 | 90.8 | 4060 | 82.7
8 | CCCCCCCCCCCCCCCCCCOP(=O)([O-])OC1CC[N+](C)(C)CC1 [Perifosine] + CNC(=O)c1cc(Oc2ccc(NC(=O)Nc3ccc(Cl)c(C(F)(F)F)c3)cc2)ccn1 [sorafenib] (first compound 0.4 µM, partner dose 0.4 µM) | 79.9 | 84.3 | 104 | 73.6 | 83.5 | 28.6 | 113 | 100 | 106
9 | Cc1cc(Nc2cc(N3CCN(C)CC3)nc(Sc3ccc(NC(=O)C4CC4)cc3)n2)n[nH]1 [Tozasertib] + Nc1ncn([C@H]2C[C@H](O)[C@@H](CO)O2)c(=O)n1 [decitabine] (first compound 0.006 µM, partner dose 0.1 µM) | 89.1 | 110 | 140 | 119 | 83.8 | 215 | 97.8 | 104 | 101
10 | Cc1cn(-c2cc(NC(=O)c3ccc(C)c(Nc4nccc(-c5cccnc5)n4)c3)cc(C(F)(F)F)c2)cn1 [nilotinib] + Cn1c(=O)n(-c2ccc(C(C)(C)C#N)cc2)c2c3cc(-c4cnc5ccccc5c4)ccc3ncc21 [NVP-BEZ235] (first compound 0.2 µM, partner dose 0.004 µM) | 152 | 97.6 | 201 | 168 | 82.1 | 41.4 | 86.8 | 79.9 | 96.2

2 entries from above, set out differently:
Row	SMILES	cleaved PARP positive nuclei fraction (501Mel) [%]	cleaved PARP positive nuclei fraction (A101D) [%]	cleaved PARP positive nuclei fraction (A2058) [%]	cleaved PARP positive nuclei fraction (A375) [%]	cleaved PARP positive nuclei fraction (C32) [%]	cleaved PARP positive nuclei fraction (CBRC008) [%]	cleaved PARP positive nuclei fraction (CBRC014) [%]	cleaved PARP positive nuclei fraction (CBRC016) [%]	cleaved PARP positive nuclei fraction (CBRC017) [%]
1	CC[C@]1(O)C[C@H]2CN(CCc3c([nH]c4ccccc34)[C@@](C(=O)OC)(c3cc4c(cc3OC)N(C=O)[C@H]3[C@@](O)(C(=O)OC)[C@H](OC(C)=O)[C@]5(CC)C=CCN6CC[C@]43[C@@H]65)C2)C1 [vincristine] + NC(=O)c1ccc(N(C(N)=O)c2c(F)cccc2F)nc1-c1ccc(F)cc1F [VX702] (first compound 0.0001 µM, partner dose 0.4 µM)	50.5	194	1310	135	743	238	112	743	122
2	O=C(Nc1cc(C(F)(F)F)cc(C(F)(F)F)c1)c1cc(Cl)ccc1O + OCc1c[nH]c2ccccc12 [Indole-3-carbinol] (first compound 0.016 µM, partner dose 0.8 µM)	109	67	227	334	89.2	134	78.4	92.3	110
